From PubChem BioAssay AID445 (National Center for Advancing Translational Sciences (NCATS), 2006)
Some of the results follow. These are further read-outs of the screen, such as a control signal, another cell line or another target. No call is given for them. Compounds called inactive in the main read-out are mostly missing here. Potencies come from curve fits of mixed quality, noted in brackets.

Assay: IkB Signaling
Conditions: ABC-DLBCL IkBa-CBG/CBR dual luciferase ratio (green luciferase fused to IkBa over red control in OCI-Ly3 lymphoma cells), 4 h
In short: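 Curves were fitted separately to fusion (green), unfused (red) and ratio luminescence, then classed by r2, magnitude and activity. Cells: OCI-Ly3, 4 h compound plus doxycycline at 37C; 10 uM MG-132 defined full response.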

[1] = measured here: control luc red channel unless noted
[2] = measured here: IkB-luc green channel
[3] = measured here: control luc red channel

CC1CCN(c2nc3ccccc3nc2SCC(=O)Nc2ccccc2C(C)C)CC1
AC50 [1]: 25.1 µM [falling, partial curve, poor fit]

CCCN1CCN(c2ncnc3sc(C(=O)Nc4ccc(OC(F)(F)F)cc4)c(C)c23)CC1
AC50 [1]: 39.8 µM [falling, partial curve, poor fit]

CCOc1ccc(C(=O)c2cn(CC(=O)Nc3ccc(C)c(Cl)c3)c3ccc(OCC)cc3c2=O)cc1
AC50 [1]: 2.51 µM [falling, partial curve, poor fit]

CCCCC(=O)OCc1cc(=O)n2nc(C3CC3)sc2n1
AC50 [1]: 12.6 µM [rising, partial curve]

O=C(NC1(C(F)(F)F)N=C(c2ccccc2)N(Cc2ccccc2)C1=O)c1ccc(F)cc1 (centres undefined)
AC50 [1]: 39.8 µM [falling, single point]

O=C(Nc1nc(-c2ccncc2)cs1)C1COc2ccccc2O1 (centres undefined)
AC50 [1]: 39.8 µM [falling, single point]

CCOc1ccc(CCNC(=O)c2cc3n(n2)CCCN(Cc2ccc(C)cc2)C3=O)cc1OCC
AC50 [1]: 1 µM [rising, partial curve]

Cc1cc(-c2ccc(C)c(S(=O)(=O)Nc3ccc(C)c(N(C)C)c3)c2)on1
AC50 [1]: 39.8 µM [falling, single point]

COc1ccc2cc3c(N)c(C(=O)N4CCCC4)sc3nc2c1
AC50 [1]: 31.6 µM [falling, partial curve]

C=CCn1c(-c2ccc(Cl)cc2)c[nH]c1=S
AC50 [1]: 0.501 µM [falling, full curve]

COc1ccc(-c2nc(SCC(=O)NCC3CCCO3)c(-c3ccc(C)cc3)[nH]2)cc1OC (centres undefined)
AC50 [1]: 7.94 µM [falling, partial curve]

COc1cc(/C=N/n2cnnc2)ccc1OC(=O)c1cccnc1
AC50 [1]: 10 µM [falling, partial curve]

CC(C)(CO)Cc1cc(C(C)(C)C)c(O)c(C(C)(C)C)c1
AC50 [2]: 7.94 µM [rising, partial curve]
AC50 [3]: 39.8 µM [falling, single point]

Cc1ccc(N(C)S(=O)(=O)c2nnc(NC(=O)c3ccco3)s2)cc1
AC50 [1]: 7.94 µM [falling, full curve, poor fit]

CCCC(c1nnnn1Cc1ccccc1)N1CCN(c2ccccc2OC)CC1 (centres undefined)
AC50 [1]: 31.6 µM [falling, single point]

Cc1cccc(NC(=O)COc2ccc(Br)cc2)n1
AC50 [1]: 12.6 µM [falling, partial curve]

COc1ccc(CNC(=O)C2CCN(C(=O)N3CCOc4ccc(C)cc43)CC2)cc1
AC50 [1]: 25.1 µM [falling, single point]

C=C(C)COc1ccc(-c2[nH]ncc2-c2ccc(OC)c(OC)c2)c(O)c1
AC50 [1]: 12.6 µM [falling, partial curve]

O=C(NCc1ccc(Cl)cc1)c1cc2cccc3c2n1CCS3
AC50 [1]: 12.6 µM [falling, partial curve]

CC1CCCN(C(=O)c2ccc(CSc3nc4ccncc4n3Cc3ccccc3)cc2)C1 (centres undefined)
AC50 [1]: 20 µM [falling, single point]

O=C(O)CCc1ccc(-c2ccc(F)cc2)n1Cc1ccco1
AC50 [1]: 25.1 µM [falling, partial curve]

Cc1cccc(NC(=O)Cn2c(=O)n(Cc3nc(-c4ccccc4)no3)c(=O)c3ccccc32)c1
AC50 [1]: 15.8 µM [falling, partial curve]

COC(=O)c1sccc1S(=O)(=O)N(CC(=O)NCc1ccc(F)cc1)c1ccccc1
AC50 [1]: 12.6 µM [falling, partial curve]

O=C(CCNS(=O)(=O)c1ccc(Br)s1)Nc1ccc(Br)cc1
AC50 [1]: 3.16 µM [falling, single point]

CCc1cc2cc(C(=O)N3CCN(Cc4ccccc4)CC3)sc2s1
AC50 [1]: 3.98 µM [falling, partial curve]

COc1cc(NS(=O)(=O)c2ccc(NC(=O)COc3ccc(Cl)cc3Cl)cc2)nc(OC)n1
AC50 [1]: 20 µM [falling, partial curve]

CCOc1ccccc1N(CC)C(=O)Cn1ncc2c1-c1ccccc1OC2
AC50 [1]: 39.8 µM [falling, single point]

CCOc1ccc(NC(=O)CSc2nc(-c3ccccc3)c3cc(OCC)ccc3n2)cc1
AC50 [1]: 39.8 µM [falling, single point]

CCOC(=O)O[C@]1(C(=O)COC(=O)CC)CC[C@@H]2[C@@H]3CCC4=CC(=O)C=C[C@@]4(C)[C@H]3[C@H](O)C[C@]21C
AC50 [1]: 3.98 nM [rising, full curve] [measured here: IkB-luc green channel]

Cc1cc(C)n(-c2nnc(C)n2/N=C/c2ccccc2OCc2ccccc2Cl)n1
AC50 [1]: 25.1 µM [falling, partial curve]

O=C(NCc1ccccc1Cl)C(=O)NCC(c1ccc2c(c1)OCO2)N1CCOCC1 (centres undefined)
AC50 [1]: 0.0794 µM [falling, full curve, poor fit]

CCC(CC)C(=O)N1CCc2cc(OC)c(OC)cc2C1COc1ccc2c(C)cc(=O)oc2c1 (centres undefined)
AC50 [1]: 39.8 µM [falling, single point]

O=C(NCc1ccccc1Cl)c1cc(-c2ccccc2)n[nH]1
AC50 [1]: 6.31 µM [falling, partial curve]

C=CCOc1ccc(/C(CC)=N/O)c(OC)c1
AC50 [1]: 25.1 µM [rising, partial curve]

O=C(Cn1c2ncccc2c(=O)n1-c1ccccc1)NCc1ccccc1
AC50 [1]: 15.8 µM [falling, single point]

O=C(CS(=O)(=O)c1nc(-c2ccc(Cl)cc2)cn1-c1ccccc1)Nc1cccc(Cl)c1
AC50 [1]: 2.51 µM [falling, partial curve]

Cc1nc(-c2ccccc2)sc1-c1ccc(SCC(=O)Nc2ccccc2)nn1
AC50 [1]: 39.8 µM [falling, single point]

Cc1ccc(NC(=O)c2ccc(F)c(S(=O)(=O)NCCc3ccccc3)c2)cc1F
AC50 [1]: 15.8 µM [falling, partial curve]

Cc1oc(-c2cccc(Br)c2)nc1CN1CCC(C(=O)NCc2ccccc2)CC1
AC50 [1]: 39.8 µM [falling, single point]

Cc1ccc2nc(NC(=O)C3CCCN(S(=O)(=O)c4cccc5nsnc45)C3)sc2c1 (centres undefined)
AC50 [1]: 5.01 µM [falling, partial curve]

COc1cccc(CNC(=O)Cc2c(C)c3cc4c(C)coc4cc3oc2=O)c1
AC50 [1]: 7.94 µM [falling, full curve]

COc1cccc(NC(=O)c2csc3c2CCCCC3)c1
AC50 [1]: 31.6 µM [falling, single point]

COc1ccc(-c2nc(CSCC(=O)NCCc3ccc(OC)c(OC)c3)c(C)o2)cc1
AC50 [1]: 39.8 µM [falling, single point]

CC(C)NC(=O)C1=CC(c2ccc3c(c2)OCO3)=NS(=O)(=O)N1C
AC50 [1]: 10 µM [falling, partial curve]

COc1ccc(-c2nnc(Nc3nc4c(OC)cccc4s3)o2)c(OC)c1
AC50 [2]: 39.8 µM [rising, single point]
AC50 [3]: 10 µM [falling, partial curve]

Cc1cc(Cl)ccc1NC(=O)CCS(=O)(=O)c1ccc2c(c1)CC(C)N2C(=O)C1CC1 (centres undefined)
AC50 [1]: 31.6 µM [falling, single point]

COc1ccc(C2C(C(=O)Nc3cccnc3)=C(C)Nc3nc(-c4ccc(OC)c(OC)c4)nn32)cc1 (centres undefined)
AC50 [1]: 31.6 µM [falling, single point]

CCOC(=O)c1c(C)[nH]c(CCC(=O)NCc2cc(Br)ccc2OC)c1C
AC50 [1]: 3.16 µM [falling, single point]

CCc1c(C)nc(Nc2nc(C)c3cc(OC)ccc3n2)[nH]c1=O
AC50 [1]: 12.6 µM [falling, partial curve]

O=C(C1CCC1)N1CCc2cc(S(=O)(=O)NCC3COc4ccccc4O3)ccc21 (centres undefined)
AC50 [1]: 15.8 µM [falling, partial curve]

Cc1cccc(Cn2c(N3CCN(c4ccccc4)CC3)nc3c2c(=O)n(C)c(=O)n3C)c1
AC50 [1]: 20 µM [falling, partial curve]

COc1ccc(S(=O)(=O)N2Cc3ccccc3CC2C(=O)Nc2nccs2)cc1OC (centres undefined)
AC50 [1]: 5.01 µM [falling, partial curve]

O=C(Nc1ccc2c(c1)CCCN2C(=O)c1cccs1)c1ccccc1Cl
AC50 [1]: 20 µM [falling, partial curve]

COc1cccc(C2=NOC(C(=O)NC3CCCCC3)C2)c1 (centres undefined)
AC50 [1]: 20 µM [falling, single point]

Cc1cccc(OCc2nnc(SCn3nnc4ccccc4c3=O)o2)c1
AC50 [1]: 31.6 µM [falling, partial curve]

CC(=O)CSc1nnc2[nH]c(=O)cc(N)n12
AC50 [1]: 5.01 µM [rising, partial curve]

COc1cc(C2NC(=O)c3c(sc4c3CCN(C)C4)N2)cc(OC)c1OC (centres undefined)
AC50 [1]: 20 µM [falling, single point]

COc1ccc(Br)cc1CN1C(=O)c2ccccc2C1C(=O)NC1CCCCCC1 (centres undefined)
AC50 [1]: 10 µM [falling, partial curve]

COc1cc(C2c3sc(=O)[nH]c3SC3C4CCC(C4)C23)ccc1O (centres undefined)
AC50 [1]: 31.6 µM [falling, single point]

COC(=O)c1c(NC(=O)CCCOc2cccc(C)c2)sc2c1C(C(=O)OC)CC2 (centres undefined)
AC50 [1]: 15.8 µM [falling, single point]

CCc1ccc(CN(Cc2cn[nH]c2-c2ccc(OC)cc2)C(=O)Nc2cc(Cl)ccc2OC)cc1
AC50 [1]: 25.1 µM [falling, single point]

COC(=O)c1cc(=O)nc2sc3ccccc3n12
AC50 [1]: 3.98 µM [rising, partial curve]
